Negatives hold for the conditions tested. At least one verdict was read from the data and is not stated in words by the source. Where a protein sequence is shown, tags need not be part of it.

Data on one sequence can be found in article PMC10808074, “Regulation of micro- and small-exon retention and other splicing processes by GRP20 for flower development”.

The data set addresses T1, GRP20 (RBDm) M102A,W103A,Y105A,K106A,K107A (Arabidopsis thaliana) (UniProt Q7DV38).
T1 sequence (looked up): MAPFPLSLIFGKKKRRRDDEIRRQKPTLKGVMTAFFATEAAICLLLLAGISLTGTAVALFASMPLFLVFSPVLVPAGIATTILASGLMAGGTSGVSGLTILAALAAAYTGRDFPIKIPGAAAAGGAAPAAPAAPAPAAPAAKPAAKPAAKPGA
In words: EMSA. The note with it: negative protein control; Probes: 400 fmol RNA, 17 ug protein, 1x binding buffer (Molecular Probes E33075 kit), room temp 30 min, 5% native PAGE, SYBR Green; pre-mRNA: 500 ng RNA in 10 mM HEPES; recombinant protein; residues 1-153; protein details: N-terminal His6-SUMO.

On to AGGAGAAGGCC [AP1-probe], for which the binding result was “no binding”.
